Publication PMC10238197, “Deafness‐Associated ADGRV1 Mutation Impairs USH2A Stability through Improper Phosphorylation of WHRN and WDSUB1 Recruitment” (Advanced Science, 2023)
Where a chain is given by its changes, count along the chain named. Results are given in words; binding and its absence hold for the method and conditions named. In cells and extracts the contact can be indirect. Some entries that bind do so weakly or less than the wild type. Tags and fused reporters may be left off the sequences shown.

By UniProt entry, the sequences of proteins in these tests, tags left out. Residues count along the entry.
UniProt Q8VHN7, residues 4333-6298: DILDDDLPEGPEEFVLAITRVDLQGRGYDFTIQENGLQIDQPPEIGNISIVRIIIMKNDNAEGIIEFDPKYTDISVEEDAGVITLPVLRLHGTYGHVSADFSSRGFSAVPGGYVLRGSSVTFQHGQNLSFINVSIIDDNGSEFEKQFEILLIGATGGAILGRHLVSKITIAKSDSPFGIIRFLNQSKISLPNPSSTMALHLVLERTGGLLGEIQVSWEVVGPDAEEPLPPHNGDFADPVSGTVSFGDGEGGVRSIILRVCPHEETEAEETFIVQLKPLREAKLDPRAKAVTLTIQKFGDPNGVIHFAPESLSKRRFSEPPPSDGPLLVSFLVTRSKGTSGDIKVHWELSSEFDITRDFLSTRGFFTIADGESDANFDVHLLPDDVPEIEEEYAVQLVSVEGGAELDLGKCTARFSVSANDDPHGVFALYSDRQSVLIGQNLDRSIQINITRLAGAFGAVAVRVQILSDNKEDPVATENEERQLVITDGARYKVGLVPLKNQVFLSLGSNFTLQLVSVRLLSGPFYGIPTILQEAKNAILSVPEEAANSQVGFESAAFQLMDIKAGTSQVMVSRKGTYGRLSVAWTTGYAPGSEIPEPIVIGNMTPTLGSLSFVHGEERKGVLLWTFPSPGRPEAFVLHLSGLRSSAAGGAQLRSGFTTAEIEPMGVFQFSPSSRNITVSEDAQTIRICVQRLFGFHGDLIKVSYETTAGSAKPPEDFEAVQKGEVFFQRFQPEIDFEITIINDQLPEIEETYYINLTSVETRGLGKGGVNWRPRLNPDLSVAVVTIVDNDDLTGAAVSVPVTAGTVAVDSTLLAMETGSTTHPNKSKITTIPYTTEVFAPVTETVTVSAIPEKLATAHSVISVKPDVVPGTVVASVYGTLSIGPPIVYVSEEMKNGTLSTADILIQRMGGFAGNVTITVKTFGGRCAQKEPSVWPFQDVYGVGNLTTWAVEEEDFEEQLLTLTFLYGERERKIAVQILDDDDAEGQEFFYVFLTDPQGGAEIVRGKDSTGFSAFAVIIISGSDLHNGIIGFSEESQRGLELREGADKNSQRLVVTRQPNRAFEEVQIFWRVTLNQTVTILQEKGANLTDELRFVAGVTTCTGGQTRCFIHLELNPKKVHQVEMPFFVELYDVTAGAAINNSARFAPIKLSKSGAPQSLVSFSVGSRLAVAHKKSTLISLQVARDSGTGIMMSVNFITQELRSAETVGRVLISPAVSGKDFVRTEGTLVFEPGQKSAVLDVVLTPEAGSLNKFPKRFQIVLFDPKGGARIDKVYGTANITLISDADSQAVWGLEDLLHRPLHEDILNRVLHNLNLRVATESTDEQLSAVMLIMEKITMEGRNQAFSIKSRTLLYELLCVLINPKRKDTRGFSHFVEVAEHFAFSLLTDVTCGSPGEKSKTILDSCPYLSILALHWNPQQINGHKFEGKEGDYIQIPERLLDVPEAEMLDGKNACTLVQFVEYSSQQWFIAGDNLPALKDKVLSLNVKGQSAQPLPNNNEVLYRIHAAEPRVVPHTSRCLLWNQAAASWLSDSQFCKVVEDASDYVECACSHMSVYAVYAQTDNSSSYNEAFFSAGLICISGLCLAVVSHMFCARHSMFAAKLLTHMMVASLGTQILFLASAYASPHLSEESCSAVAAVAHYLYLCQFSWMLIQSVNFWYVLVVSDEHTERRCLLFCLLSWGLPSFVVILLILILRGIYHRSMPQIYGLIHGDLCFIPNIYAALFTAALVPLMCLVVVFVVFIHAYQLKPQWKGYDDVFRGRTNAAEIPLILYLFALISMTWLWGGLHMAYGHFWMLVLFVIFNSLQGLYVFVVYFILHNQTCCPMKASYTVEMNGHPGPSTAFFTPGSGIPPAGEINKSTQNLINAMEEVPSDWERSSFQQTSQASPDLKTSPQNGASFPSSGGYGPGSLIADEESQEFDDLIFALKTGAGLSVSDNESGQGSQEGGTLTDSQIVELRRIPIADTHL

Key:
Experiment in all cases: FRET or BRET; intermolecular FlAsH-BRET saturation in HEK293 cells: fixed amount of WHRN-Nluc, increasing ADGRV1-FlAsH or USH2A-FlAsH; 2.5 µM FlAsH-EDT2, 5 µM coelenterazine-h; net BRET Em530/Em485
WHRN-Nluc L-Z2 (mouse) = target: T1, WHRN-Nluc L-Z2 (mouse) (UniProt Q80VW5)
T1 sequence: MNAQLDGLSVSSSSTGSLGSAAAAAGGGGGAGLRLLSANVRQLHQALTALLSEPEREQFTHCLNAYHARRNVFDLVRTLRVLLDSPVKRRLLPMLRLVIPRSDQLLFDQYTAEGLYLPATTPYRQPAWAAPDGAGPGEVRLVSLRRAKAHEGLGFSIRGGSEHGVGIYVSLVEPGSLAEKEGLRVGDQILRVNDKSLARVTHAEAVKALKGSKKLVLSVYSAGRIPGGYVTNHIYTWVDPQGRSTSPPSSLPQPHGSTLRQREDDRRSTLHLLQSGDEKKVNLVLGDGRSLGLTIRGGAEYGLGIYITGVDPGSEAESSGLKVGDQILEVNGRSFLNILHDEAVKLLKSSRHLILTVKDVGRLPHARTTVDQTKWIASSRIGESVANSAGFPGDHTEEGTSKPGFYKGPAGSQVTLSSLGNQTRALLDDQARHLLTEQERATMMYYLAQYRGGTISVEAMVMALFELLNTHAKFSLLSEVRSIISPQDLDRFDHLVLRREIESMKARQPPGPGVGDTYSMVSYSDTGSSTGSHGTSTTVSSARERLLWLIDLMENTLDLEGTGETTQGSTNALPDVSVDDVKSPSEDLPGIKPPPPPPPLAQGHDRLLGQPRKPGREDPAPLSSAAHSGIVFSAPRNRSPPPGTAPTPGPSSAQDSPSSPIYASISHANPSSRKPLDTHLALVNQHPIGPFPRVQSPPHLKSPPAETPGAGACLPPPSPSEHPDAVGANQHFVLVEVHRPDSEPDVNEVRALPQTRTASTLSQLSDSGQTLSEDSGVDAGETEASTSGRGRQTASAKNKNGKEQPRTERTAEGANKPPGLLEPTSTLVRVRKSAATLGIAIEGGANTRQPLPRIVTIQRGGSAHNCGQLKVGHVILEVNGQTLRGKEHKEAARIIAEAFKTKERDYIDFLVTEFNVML

[1] = target: T2, WHRN-Nluc (L-Z2) D341A (mouse) (UniProt Q80VW5)
T2 sequence: T1 sequence with D341A

[2] = target: T3, WHRN-Nluc (L-Z2) Y301A (mouse) (UniProt Q80VW5)
T3 sequence: T1 sequence with Y301A

binding (WHRN-Nluc L-Z2 (mouse)): binds
binding [1]: binds
binding [2]: binds
Substance: ADGRV1-ICL3-FlAsH (from UniProt Q8VHN7 4333-6298) (receptor)
